No constants are given. Whether binding was seen depends on the method and setting. Binding can be weak; no strength is given.
Experiments:
[1] = target: pigtailed macaque DC-SIGN (pigtailed macaque (Macaca nemestrina)); assay: restates the in vitro cell binding result
[2] = target: pigtailed macaque DC-SIGN (pigtailed macaque (Macaca nemestrina)); assay: in vitro cell binding
[3] = target: marmoset DC-SIGN (common marmoset (Callithrix jacchus)); assay: binding studies on cells modified to express marmoset DC-SIGN
[4] = target: pigtailed macaque DC-SIGN (pigtailed macaque (Macaca nemestrina)); assay: in vitro, Lipovaxin-MM on monocyte-derived macaque DCs and on THP-1 cells expressing exogenous macaque DC-SIGN
[5] = target: pigtailed macaque DC-SIGN (pigtailed macaque (Macaca nemestrina)); assay: in vitro binding studies of Lipovaxin-MM to macaque DC-SIGN

Measured: binding

B1: DMS5000 (other)
VH: STEVQLLESGGGLVQPGGSLRLSCAASGFTFDRRAMGWVRQAPGKGLEWVSSIESDGTRTYYADSVKGRFTISRDNSKNTLYLQMNSLRAEDTAVYYCAKHPGSSYVFDYWGQGTLVTVSS
notes: Human VH domain antibody (dAb), made as a secreted protein in E. coli; also called DC-SIGN specific domain antibody (dAb); dAb
binds: [1] | [2] | [3] | [4] | [5]

Source: patent US20140341971A1 (LIPOTEK, published 2014)
